No constants are given. Whether binding was seen depends on the method and setting. In cells and extracts the contact can be indirect. Some entries that bind do so weakly or less than the wild type.
T1: Leukemia inhibitory factor receptor (LIFR), endogenous in HK2 cells (human (endogenous in HK2)) (UniProt P42702)
T1 sequence: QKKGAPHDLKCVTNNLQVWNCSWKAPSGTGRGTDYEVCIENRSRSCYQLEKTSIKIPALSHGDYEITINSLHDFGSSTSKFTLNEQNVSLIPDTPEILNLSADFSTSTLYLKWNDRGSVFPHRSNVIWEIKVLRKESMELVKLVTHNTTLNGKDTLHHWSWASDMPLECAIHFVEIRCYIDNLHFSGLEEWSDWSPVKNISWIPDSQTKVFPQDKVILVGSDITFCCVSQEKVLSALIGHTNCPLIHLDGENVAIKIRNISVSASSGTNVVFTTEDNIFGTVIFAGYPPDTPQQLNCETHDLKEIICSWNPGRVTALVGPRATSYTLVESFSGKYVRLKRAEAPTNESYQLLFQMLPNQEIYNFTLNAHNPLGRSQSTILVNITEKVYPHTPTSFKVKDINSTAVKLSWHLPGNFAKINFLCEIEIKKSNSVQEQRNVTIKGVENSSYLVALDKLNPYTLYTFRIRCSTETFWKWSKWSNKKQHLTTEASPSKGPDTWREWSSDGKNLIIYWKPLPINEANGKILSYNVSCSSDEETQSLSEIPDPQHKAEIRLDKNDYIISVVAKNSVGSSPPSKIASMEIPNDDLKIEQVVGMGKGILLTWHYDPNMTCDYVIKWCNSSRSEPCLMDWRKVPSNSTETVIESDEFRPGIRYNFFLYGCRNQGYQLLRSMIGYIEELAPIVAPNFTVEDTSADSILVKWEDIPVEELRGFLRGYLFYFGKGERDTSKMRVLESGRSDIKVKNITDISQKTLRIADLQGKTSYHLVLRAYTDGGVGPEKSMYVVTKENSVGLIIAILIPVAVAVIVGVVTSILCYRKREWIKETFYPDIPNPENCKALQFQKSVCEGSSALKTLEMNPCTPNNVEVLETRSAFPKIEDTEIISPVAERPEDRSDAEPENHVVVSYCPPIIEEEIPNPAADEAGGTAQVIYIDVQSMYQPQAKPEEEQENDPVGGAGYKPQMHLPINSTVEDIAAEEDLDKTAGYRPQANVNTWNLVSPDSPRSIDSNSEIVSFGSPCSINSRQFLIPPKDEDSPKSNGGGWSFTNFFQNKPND


Target: T1, Leukemia inhibitory factor receptor (LIFR), endogenous in HK2 cells (human (endogenous in HK2))
Experiment: co-IP; lysates of HK-2 cells (ILEI-overexpressing groups, or cells treated with 5 ng/ml TGF-β1 for 48 h) incubated with protein A-agarose beads and anti-ILEI or anti-LIFR antibody at 4 °C; immunoblot with anti-LIFR and anti-ILEI

Binder | binding
Interleukin-like EMT inducer (ILEI), overexpressed from pcDNA3.1-ILEI (protein, UniProt Q92520 25-227) QVFEIKMDASLGNLFARSALDTAARSTKPPRYKCGISKACPEKHFAFKMASGAANVVGPKICLEDNVLMSGVKNNVGRGINVALANGKTGEVLDTKYFDMWGGDVAPFIEFLKAIQDGTIVLMGTYDDGATKLNDEARRLIADLGSTSITNLGFRDNWVFCGGKGIKTKSPFEQHIKNNKDTNKYEGWPEVVEMEGCIPQKQD | binds
Interleukin-like EMT inducer (ILEI), endogenous in HK2 cells (protein, UniProt Q92520 25-227) QVFEIKMDASLGNLFARSALDTAARSTKPPRYKCGISKACPEKHFAFKMASGAANVVGPKICLEDNVLMSGVKNNVGRGINVALANGKTGEVLDTKYFDMWGGDVAPFIEFLKAIQDGTIVLMGTYDDGATKLNDEARRLIADLGSTSITNLGFRDNWVFCGGKGIKTKSPFEQHIKNNKDTNKYEGWPEVVEMEGCIPQKQD | binds
